{"source": "PubChem BioAssay AID504793 (Drosophila RNAi Screening Center, 2011)", "assay": "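Whole-genome screen for parts of the DNA damage checkpoint at G2/M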 (primary screen)", "system": "Drosophila S2R+ cells", "reagent": "long dsRNA against Drosophila genes, about 0.25 µg dsRNA per well", "duration": "4 days of dsRNA, then 4 hours of drug before read-out", "challenge": "doxorubicin 0.5 µM for 4 hours to cause double-strand breaks, in cells also given a low, harmless dose of dsRNA against nbs to sensitise the assay", "detection": "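Per-well count of mitotic cells stained for phospho-histone H3 after doxorubicin exposure, used as mitotic index; counts are raw and not normalised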", "reading the numbers": "mitotic cells: higher = more cells in mitosis, weaker G2 arrest", "rule for the call": "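a call needs confirmation in secondary tests, with other dsRNAs and a check of mitotic timing without damage, not just a high primary count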", "meaning of the calls": "active = confirmed in follow-up tests; inactive = not confirmed", "note": "The screen tested about 23,000 reagents; this is a random part of those that have a named target and a result. In the full data, 62 (0.27%) are marked active. 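Calls come from follow-up tests whose scores are not deposited, so confirmed genes may have low counts here; counts are not normalised per plate.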 Raw values are not corrected between plates. The numbers tell different reagents against one gene apart. Names joined by + are all predicted targets of the reagent."}
{"gene":"rg","reagent":1,"mitotic cells, replicate 1":4,"call":"inactive"}
{"gene":"rg","reagent":2,"mitotic cells, replicate 1":13,"call":"inactive"}
{"gene":"rg","reagent":3,"mitotic cells, replicate 1":3,"call":"inactive"}
{"gene":"AGO1","reagent":1,"mitotic cells, replicate 1":4,"call":"inactive"}
{"gene":"AGO1","reagent":2,"mitotic cells, replicate 1":12,"call":"inactive"}
{"gene":"CG4686","reagent":1,"mitotic cells, replicate 1":7,"call":"inactive"}
{"gene":"spen","reagent":1,"mitotic cells, replicate 1":2,"call":"inactive"}
{"gene":"spen","reagent":2,"mitotic cells, replicate 1":6,"call":"inactive"}
{"gene":"CG17508","reagent":1,"mitotic cells, replicate 1":4,"call":"inactive"}
{"gene":"waw + bbx","reagent":1,"mitotic cells, replicate 1":11,"call":"inactive"}
{"gene":"Pp2C1","reagent":1,"mitotic cells, replicate 1":9,"call":"inactive"}
{"gene":"Pp2C1","reagent":2,"mitotic cells, replicate 1":7,"call":"inactive"}
{"gene":"CG34283","reagent":1,"mitotic cells, replicate 1":13,"call":"inactive"}
{"gene":"CG9777","reagent":1,"mitotic cells, replicate 1":11,"call":"inactive"}
{"gene":"CG8320 + ATPCL","reagent":1,"mitotic cells, replicate 1":3,"call":"inactive"}
{"gene":"TrxT","reagent":1,"mitotic cells, replicate 1":6,"call":"inactive"}
{"gene":"sm","reagent":1,"mitotic cells, replicate 1":4,"call":"inactive"}
{"gene":"sm","reagent":2,"mitotic cells, replicate 1":3,"call":"inactive"}
{"gene":"CG11275","reagent":1,"mitotic cells, replicate 1":5,"call":"inactive"}
{"gene":"CG1428","reagent":1,"mitotic cells, replicate 1":3,"call":"inactive"}
{"gene":"amrt","reagent":1,"mitotic cells, replicate 1":6,"call":"inactive"}
{"gene":"amrt","reagent":2,"mitotic cells, replicate 1":4,"call":"inactive"}
{"gene":"Spp","reagent":1,"mitotic cells, replicate 1":5,"call":"inactive"}
{"gene":"CG13082","reagent":1,"mitotic cells, replicate 1":3,"call":"inactive"}
{"gene":"CG13082","reagent":2,"mitotic cells, replicate 1":7,"call":"inactive"}
{"gene":"beat-IIIb","reagent":1,"mitotic cells, replicate 1":7,"call":"inactive"}
{"gene":"CG6340","reagent":1,"mitotic cells, replicate 1":3,"mitotic cells, replicate 2":9,"call":"inactive"}
{"gene":"CG6340","reagent":2,"mitotic cells, replicate 1":7,"call":"inactive"}
{"gene":"sotv + CG10731","reagent":1,"mitotic cells, replicate 1":3,"call":"inactive"}
{"gene":"sotv + CG10731","reagent":2,"mitotic cells, replicate 1":12,"call":"inactive"}
{"gene":"CG6424","reagent":1,"mitotic cells, replicate 1":9,"call":"inactive"}
{"gene":"CG6424","reagent":2,"mitotic cells, replicate 1":6,"call":"inactive"}
{"gene":"Pex10","reagent":1,"mitotic cells, replicate 1":22,"call":"inactive"}
{"gene":"Pex10","reagent":2,"mitotic cells, replicate 1":7,"call":"inactive"}
{"gene":"TwdlH","reagent":1,"mitotic cells, replicate 1":8,"call":"inactive"}
{"gene":"PGAP5","reagent":1,"mitotic cells, replicate 1":7,"call":"inactive"}
{"gene":"PGAP5","reagent":2,"mitotic cells, replicate 1":3,"call":"inactive"}
{"gene":"CG31219","reagent":1,"mitotic cells, replicate 1":9,"call":"inactive"}
{"gene":"mei-217 + mei-218","reagent":1,"mitotic cells, replicate 1":6,"call":"inactive"}
{"gene":"Or65b","reagent":1,"mitotic cells, replicate 1":5,"call":"inactive"}
{"gene":"Ugt50B3","reagent":1,"mitotic cells, replicate 1":3,"call":"inactive"}
{"gene":"Ugt50B3","reagent":2,"mitotic cells, replicate 1":6,"call":"inactive"}
{"gene":"PCID2","reagent":1,"mitotic cells, replicate 1":9,"call":"inactive"}
{"gene":"PCID2","reagent":2,"mitotic cells, replicate 1":6,"call":"inactive"}

Reformatted: 3 of the entries above
gene,reagent,"mitotic cells, replicate 1","mitotic cells, replicate 2",call
beat-IIIb,1,7,,inactive
CG6340,1,3,9,inactive
CG6340,2,7,,inactive
